Measured values as given in paper PMC10926635, “Membrane-associated RING-CH 7 inhibits stem-like capacities of bladder cancer cells by interacting with nucleotide-binding oligomerization domain containing 1” (Cell & Bioscience, 2024).
Where two headings read alike, the source gives them in different places. Results are given in words; binding and its absence hold for the method and conditions named. Binding seen in cells or lysates may run through a third protein. Some results given as binding are weak or reduced against the parent protein; the word gives no strength. Tags and fused reporters may be left off the sequences shown.

Amino acid sequences for entries named in this document (tags omitted).
UniProt Q9HC29: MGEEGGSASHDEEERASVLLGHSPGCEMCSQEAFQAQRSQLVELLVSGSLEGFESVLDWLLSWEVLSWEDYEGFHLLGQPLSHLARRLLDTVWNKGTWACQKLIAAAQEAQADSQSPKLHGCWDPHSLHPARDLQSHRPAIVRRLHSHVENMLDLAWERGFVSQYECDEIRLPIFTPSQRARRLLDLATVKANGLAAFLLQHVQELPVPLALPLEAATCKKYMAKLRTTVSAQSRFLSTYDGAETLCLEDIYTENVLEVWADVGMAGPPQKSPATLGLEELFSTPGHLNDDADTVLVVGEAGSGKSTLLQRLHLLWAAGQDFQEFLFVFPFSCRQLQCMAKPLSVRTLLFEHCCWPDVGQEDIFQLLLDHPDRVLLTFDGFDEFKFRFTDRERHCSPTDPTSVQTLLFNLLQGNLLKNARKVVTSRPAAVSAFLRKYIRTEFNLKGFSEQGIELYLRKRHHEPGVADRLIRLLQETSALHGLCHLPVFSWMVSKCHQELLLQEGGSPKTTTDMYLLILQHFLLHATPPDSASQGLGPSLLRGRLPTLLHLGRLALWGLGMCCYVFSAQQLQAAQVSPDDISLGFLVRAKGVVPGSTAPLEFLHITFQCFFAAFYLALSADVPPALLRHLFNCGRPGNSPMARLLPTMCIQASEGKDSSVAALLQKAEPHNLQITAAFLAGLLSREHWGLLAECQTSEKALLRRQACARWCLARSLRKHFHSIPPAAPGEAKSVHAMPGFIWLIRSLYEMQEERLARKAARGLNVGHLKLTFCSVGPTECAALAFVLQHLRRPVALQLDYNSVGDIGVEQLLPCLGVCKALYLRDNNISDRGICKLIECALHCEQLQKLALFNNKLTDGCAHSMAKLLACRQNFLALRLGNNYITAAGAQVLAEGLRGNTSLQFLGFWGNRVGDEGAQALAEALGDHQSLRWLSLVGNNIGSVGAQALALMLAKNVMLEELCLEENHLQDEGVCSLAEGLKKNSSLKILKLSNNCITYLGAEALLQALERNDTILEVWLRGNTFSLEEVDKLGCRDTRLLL

T1: Flag-MARCH7-WT (wild-type membrane-associated RING-CH 7) (UniProt Q9H992)
T1 sequence: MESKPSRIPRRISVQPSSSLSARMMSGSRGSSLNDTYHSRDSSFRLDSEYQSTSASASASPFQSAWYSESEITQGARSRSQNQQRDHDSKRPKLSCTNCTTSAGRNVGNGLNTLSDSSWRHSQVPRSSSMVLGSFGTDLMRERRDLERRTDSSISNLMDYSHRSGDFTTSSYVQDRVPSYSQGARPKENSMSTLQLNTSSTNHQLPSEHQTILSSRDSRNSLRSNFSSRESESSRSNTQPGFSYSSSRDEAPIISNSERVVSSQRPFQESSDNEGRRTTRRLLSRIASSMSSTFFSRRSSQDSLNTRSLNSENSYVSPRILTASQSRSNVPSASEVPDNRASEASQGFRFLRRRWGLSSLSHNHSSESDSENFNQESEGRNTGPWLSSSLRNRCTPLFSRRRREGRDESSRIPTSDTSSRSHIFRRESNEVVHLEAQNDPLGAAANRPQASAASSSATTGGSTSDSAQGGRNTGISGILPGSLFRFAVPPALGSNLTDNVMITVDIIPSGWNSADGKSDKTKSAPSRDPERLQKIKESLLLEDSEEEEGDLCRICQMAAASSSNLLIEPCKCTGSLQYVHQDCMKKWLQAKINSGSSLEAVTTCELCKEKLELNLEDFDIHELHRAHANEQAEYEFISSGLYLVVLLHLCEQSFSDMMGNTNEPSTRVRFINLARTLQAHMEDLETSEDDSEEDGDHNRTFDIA


Experiments:
[1] = target: T1, Flag-MARCH7-WT (wild-type membrane-associated RING-CH 7); assay: co-IP; HA-NOD1 and Flag-MARCH7 transfected into the cells; MG132 (10 uM) for 24 h; anti-HA or anti-FLAG with protein A- or G-agarose beads; IgG as negative control; immunoblotting
[2] = target: T1, Flag-MARCH7-WT (wild-type membrane-associated RING-CH 7); assay: as above; remark: listed apart in the source

Row | binding [1] | binding [2] | Molecule
1 | no binding | – | NOD2 (from UniProt Q9HC29 1-1040)
2 | – | binds | HA-NOD1 (nucleotide-binding oligomerization domain containing 1) (protein, UniProt Q9Y239-1 1-953) MEEQGHSEMEIIPSESHPHIQLLKSNRELLVTHIRNTQCLVDNLLKNDYFSAEDAEIVCACPTQPDKVRKILDLVQSKGEEVSEFFLYLLQQLADAYVDLRPWLLEIGFSPSLLTQSKVVVNTDPVSRYTQQLRHHLGRDSKFVLCYAQKEELLLEEIYMDTIMELVGFSNESLGSLNSLACLLDHTTGILNEQGETIFILGDAGVGKSMLLQRLQSLWATGRLDAGVKFFFHFRCRMFSCFKESDRLCLQDLLFKHYCYPERDPEEVFAFLLRFPHVALFTFDGLDELHSDLDLSRVPDSSCPWEPAHPLVLLANLLSGKLLKGASKLLTARTGIEVPRQFLRKKVLLRGFSPSHLRAYARRMFPERALQDRLLSQLEANPNLCSLCSVPLFCWIIFRCFQHFRAAFEGSPQLPDCTMTLTDVFLLVTEVHLNRMQPSSLVQRNTRSPVETLHAGRDTLCSLGQVAHRGMEKSLFVFTQEEVQASGLQERDMQLGFLRALPELGPGGDQQSYEFFHLTLQAFFTAFFLVLDDRVGTQELLRFFQEWMPPAGAATTSCYPPFLPFQCLQGSGPAREDLFKNKDHFQFTNLFLCGLLSKAKQKLLRHLVPAAALRRKRKALWAHLFSSLRGYLKSLPRVQVESFNQVQAMPTFIWMLRCIYETQSQKVGQLAARGICANYLKLTYCNACSADCSALSFVLHHFPKRLALDLDNNNLNDYGVRELQPCFSRLTVLRLSVNQITDGGVKVLSEELTKYKIVTYLGLYNNQITDVGARYVTKILDECKGLTHLKLGKNKITSEGGKYLALAVKNSKSISEVGMWGNQVGDEGAKAFAEALRNHPSLTTLSLASNGISTEGGKSLARALQQNTSLEILWLTQNELNDEVAESLAEMLKVNQTLKHLWLIQNQITAKGTAQLADALQSNTGITEICLNGNLIKPEEAKVYEDEKRIICF
